Results are given in words; binding and its absence hold for the method and conditions named. Some entries that bind do so weakly or less than the wild type.
Columns and labels:
[1] = biological target: full-length mouse PD-L2 with C-terminal YFP, on HEK293 cells (mouse) (UniProt Q9WUL5); assay: flow cytometry on cells; PD-L1 or PD-L2 transfected HEK293 cells incubated with purified human PD-1 Ig fusion proteins; Cy5 anti-human IgG F(ab')2; only the binder purified
[2] = biological target: full-length mouse PD-L1 with C-terminal YFP, on HEK293 cells (mouse) (UniProt Q9EP73); assay: as above

Protein sequences, listed by entry. Tags and fused reporters are not part of them. Residues count along the entry.
UniProt Q9WUL5, residues 20-247: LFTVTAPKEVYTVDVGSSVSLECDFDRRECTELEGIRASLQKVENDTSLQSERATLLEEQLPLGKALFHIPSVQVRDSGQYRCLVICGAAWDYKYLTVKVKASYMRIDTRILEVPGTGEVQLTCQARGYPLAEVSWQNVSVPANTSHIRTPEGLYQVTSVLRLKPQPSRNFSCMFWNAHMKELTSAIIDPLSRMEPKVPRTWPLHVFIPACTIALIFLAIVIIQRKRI
UniProt Q9EP73, residues 19-290: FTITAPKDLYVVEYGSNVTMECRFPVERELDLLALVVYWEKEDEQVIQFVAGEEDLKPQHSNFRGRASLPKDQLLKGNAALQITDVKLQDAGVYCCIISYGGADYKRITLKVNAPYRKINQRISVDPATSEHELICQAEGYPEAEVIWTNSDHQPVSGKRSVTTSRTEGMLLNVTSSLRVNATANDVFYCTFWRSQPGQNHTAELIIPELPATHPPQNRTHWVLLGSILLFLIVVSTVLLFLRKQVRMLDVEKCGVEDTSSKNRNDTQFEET

binding [1]: binds
binding [2]: binds
Substance: high-affinity human PD-1 (A132L) Ig fusion protein (from UniProt Q15116 25-170) (Fc fusion)

From article PMC5360572
